# Assay results from the supplement of paper PMC10849652.
# By UniProt entry, the sequences of proteins in these tests, tags left out. Where a name states a change or a piece, a line headed by the entry shows the natural chain unless it says otherwise.
# UniProt Q9UKJ5: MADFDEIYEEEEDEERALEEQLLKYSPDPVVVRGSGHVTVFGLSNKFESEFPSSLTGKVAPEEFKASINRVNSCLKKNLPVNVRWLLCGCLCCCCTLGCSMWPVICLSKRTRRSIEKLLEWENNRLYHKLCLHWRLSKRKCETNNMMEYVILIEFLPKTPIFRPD
# UniProt Q9UEE9, whole entry, looked up: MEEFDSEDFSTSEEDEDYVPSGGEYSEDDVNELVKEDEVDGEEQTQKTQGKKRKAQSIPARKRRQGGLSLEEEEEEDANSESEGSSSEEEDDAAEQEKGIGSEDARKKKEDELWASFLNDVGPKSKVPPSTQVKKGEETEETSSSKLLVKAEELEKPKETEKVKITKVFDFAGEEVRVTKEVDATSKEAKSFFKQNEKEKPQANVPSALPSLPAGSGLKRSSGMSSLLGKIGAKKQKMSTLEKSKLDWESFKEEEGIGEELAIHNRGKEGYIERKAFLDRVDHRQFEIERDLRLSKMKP
# UniProt O43633: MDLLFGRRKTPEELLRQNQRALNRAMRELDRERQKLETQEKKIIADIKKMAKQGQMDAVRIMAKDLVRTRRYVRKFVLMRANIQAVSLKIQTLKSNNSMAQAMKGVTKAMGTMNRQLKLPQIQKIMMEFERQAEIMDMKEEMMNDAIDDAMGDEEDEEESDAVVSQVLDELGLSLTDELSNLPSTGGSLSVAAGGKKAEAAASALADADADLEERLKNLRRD
# UniProt Q14004, whole entry, looked up: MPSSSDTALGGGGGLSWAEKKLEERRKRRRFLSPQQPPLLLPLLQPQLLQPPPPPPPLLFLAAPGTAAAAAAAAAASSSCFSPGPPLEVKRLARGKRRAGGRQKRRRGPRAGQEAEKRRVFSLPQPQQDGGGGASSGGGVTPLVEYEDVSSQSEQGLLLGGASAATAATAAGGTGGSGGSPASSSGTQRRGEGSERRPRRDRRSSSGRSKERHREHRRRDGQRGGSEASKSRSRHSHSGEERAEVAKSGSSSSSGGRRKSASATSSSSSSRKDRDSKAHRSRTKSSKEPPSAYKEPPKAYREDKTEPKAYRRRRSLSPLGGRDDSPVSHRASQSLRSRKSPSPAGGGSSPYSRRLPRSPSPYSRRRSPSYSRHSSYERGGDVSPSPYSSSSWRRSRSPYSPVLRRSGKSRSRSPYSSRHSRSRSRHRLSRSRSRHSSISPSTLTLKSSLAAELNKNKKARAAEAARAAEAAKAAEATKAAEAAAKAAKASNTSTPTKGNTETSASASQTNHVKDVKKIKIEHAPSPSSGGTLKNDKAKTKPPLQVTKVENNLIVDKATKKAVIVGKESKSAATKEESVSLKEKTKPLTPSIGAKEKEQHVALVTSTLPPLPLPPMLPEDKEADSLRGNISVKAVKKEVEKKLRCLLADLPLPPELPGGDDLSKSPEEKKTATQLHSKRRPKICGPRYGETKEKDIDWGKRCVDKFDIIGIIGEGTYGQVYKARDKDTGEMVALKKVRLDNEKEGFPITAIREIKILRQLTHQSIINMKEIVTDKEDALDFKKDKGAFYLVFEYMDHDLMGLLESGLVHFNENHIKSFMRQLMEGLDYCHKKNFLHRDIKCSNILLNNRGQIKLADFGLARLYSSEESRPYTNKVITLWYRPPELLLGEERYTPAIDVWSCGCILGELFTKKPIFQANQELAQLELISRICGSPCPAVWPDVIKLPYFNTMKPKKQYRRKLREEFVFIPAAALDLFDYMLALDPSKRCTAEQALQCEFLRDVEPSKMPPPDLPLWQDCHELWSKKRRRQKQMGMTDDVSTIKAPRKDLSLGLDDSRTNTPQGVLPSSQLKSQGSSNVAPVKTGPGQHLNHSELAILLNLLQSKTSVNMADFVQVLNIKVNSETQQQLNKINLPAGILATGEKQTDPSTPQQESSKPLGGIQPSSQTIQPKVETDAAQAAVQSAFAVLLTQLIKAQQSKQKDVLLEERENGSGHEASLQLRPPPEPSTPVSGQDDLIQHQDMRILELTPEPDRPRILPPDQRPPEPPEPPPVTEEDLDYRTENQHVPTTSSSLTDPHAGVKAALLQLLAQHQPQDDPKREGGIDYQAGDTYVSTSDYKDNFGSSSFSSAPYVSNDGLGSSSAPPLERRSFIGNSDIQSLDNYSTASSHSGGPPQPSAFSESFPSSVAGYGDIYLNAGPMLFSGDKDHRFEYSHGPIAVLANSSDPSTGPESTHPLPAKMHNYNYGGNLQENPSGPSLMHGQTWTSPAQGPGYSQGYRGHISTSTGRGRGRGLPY
# UniProt Q9Y6A4: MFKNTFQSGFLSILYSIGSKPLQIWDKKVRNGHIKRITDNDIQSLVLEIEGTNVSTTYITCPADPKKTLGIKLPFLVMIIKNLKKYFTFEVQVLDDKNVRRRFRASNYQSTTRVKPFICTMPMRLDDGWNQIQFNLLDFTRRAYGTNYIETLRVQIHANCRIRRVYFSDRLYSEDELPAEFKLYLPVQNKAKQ
# UniProt Q9BY43: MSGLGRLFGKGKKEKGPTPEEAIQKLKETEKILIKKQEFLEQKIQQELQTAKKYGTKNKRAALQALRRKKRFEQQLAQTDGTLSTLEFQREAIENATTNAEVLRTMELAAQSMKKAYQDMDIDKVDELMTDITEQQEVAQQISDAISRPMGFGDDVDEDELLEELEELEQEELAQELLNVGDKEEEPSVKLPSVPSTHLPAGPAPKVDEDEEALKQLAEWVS
# UniProt Q9Y3E7, whole entry, looked up: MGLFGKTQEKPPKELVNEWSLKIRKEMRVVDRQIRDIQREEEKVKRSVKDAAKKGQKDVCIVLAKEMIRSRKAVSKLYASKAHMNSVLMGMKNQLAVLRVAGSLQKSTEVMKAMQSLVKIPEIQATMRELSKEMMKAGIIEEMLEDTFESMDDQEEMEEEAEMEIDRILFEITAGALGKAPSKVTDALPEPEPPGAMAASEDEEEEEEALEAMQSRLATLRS
# UniProt P41208: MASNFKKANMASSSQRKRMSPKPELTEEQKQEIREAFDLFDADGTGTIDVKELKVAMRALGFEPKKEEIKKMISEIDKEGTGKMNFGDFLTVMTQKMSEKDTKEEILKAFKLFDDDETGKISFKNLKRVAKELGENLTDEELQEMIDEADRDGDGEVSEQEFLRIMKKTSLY
# UniProt Q12873: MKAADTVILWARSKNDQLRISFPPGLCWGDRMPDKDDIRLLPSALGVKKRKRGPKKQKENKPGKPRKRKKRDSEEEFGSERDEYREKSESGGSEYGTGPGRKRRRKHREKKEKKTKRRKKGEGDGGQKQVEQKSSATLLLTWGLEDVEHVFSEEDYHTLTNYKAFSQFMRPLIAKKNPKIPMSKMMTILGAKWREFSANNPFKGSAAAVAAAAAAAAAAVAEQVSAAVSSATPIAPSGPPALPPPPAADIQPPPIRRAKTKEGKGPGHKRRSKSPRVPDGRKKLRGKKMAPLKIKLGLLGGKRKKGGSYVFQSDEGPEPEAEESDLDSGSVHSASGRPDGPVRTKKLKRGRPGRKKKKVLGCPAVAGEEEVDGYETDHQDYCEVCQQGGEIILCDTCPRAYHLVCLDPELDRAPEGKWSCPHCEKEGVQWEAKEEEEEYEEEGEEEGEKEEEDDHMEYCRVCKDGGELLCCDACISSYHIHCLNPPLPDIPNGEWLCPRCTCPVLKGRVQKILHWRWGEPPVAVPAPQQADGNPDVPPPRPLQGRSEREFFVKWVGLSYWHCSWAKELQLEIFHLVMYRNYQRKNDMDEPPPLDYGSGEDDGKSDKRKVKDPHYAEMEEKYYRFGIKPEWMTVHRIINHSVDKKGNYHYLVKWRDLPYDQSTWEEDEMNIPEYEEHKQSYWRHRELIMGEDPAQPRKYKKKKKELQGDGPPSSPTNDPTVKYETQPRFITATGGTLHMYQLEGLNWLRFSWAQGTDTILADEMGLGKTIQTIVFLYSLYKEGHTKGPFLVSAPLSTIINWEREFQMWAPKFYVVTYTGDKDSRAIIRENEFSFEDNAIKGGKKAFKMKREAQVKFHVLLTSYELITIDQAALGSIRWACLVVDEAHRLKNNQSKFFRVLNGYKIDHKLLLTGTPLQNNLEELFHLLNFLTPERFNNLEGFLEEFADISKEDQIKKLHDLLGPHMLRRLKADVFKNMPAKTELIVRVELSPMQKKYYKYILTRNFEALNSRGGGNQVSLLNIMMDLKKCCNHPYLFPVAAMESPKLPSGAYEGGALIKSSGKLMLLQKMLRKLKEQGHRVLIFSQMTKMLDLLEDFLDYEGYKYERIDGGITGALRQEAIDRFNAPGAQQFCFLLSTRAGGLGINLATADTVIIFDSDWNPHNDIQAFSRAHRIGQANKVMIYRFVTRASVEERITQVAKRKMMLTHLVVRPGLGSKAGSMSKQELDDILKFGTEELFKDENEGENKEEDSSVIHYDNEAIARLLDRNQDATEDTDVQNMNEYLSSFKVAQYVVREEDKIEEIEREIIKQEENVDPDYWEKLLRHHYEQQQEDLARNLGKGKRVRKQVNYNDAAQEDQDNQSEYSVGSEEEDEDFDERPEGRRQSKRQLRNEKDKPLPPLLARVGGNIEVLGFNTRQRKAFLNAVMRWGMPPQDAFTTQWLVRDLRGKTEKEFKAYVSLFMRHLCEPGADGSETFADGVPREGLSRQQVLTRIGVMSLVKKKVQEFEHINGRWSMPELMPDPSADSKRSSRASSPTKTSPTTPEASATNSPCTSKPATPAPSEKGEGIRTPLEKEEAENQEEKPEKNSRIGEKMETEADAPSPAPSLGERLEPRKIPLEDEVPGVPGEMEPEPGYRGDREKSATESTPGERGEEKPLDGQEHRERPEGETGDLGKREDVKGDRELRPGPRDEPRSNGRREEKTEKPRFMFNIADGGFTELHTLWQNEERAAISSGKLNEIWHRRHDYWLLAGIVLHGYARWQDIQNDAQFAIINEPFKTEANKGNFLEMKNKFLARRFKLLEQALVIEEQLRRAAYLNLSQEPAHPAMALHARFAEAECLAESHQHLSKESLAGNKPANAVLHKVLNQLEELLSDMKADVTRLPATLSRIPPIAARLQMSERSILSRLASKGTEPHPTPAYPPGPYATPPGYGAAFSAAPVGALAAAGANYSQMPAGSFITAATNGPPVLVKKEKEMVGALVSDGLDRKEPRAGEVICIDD
# UniProt O96017, whole entry, looked up: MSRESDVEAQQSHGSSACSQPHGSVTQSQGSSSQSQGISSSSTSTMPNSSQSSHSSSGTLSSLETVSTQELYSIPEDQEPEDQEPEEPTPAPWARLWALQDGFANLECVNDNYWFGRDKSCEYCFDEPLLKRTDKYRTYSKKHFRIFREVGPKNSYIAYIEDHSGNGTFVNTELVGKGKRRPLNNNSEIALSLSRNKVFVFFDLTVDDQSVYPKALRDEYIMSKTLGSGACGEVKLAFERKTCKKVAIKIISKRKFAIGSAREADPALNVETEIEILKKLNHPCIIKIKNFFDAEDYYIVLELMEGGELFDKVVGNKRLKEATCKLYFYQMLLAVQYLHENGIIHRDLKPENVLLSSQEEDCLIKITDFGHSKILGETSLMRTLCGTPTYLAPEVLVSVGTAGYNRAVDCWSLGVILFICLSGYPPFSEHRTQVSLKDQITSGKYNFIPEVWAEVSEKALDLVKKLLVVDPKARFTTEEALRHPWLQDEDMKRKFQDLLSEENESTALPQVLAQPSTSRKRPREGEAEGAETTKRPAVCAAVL
# UniProt Q9UFW8: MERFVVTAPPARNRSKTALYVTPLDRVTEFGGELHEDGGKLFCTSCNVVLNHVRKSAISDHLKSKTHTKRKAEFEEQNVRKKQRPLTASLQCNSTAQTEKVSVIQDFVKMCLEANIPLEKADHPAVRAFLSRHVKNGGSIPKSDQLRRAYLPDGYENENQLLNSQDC
# UniProt Q96SZ6: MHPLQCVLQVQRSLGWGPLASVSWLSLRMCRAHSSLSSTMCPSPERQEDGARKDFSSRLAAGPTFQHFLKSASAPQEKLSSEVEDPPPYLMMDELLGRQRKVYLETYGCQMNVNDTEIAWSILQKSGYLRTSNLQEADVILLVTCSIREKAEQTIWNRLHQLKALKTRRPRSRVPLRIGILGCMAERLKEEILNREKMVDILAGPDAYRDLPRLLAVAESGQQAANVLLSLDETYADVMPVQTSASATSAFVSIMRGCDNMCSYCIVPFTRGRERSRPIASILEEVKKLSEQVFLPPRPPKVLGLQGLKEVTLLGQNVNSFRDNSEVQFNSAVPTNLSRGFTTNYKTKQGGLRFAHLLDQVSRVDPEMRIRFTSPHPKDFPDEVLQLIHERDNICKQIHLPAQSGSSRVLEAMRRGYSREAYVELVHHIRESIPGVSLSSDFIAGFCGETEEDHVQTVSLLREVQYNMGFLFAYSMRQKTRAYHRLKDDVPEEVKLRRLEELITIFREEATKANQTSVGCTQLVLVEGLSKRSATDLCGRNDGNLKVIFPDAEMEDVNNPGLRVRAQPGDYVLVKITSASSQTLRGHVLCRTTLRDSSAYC
# UniProt Q96FF9: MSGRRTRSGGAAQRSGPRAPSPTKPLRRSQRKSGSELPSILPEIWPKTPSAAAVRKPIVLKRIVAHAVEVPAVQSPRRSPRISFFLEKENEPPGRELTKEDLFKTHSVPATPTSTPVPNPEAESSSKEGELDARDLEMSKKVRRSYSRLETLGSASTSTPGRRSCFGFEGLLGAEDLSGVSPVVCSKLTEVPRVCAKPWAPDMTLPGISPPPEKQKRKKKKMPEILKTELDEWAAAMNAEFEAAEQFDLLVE
# The list shows a part of the results.
# Compound: NC1(c2ccc(-c3nc4ccn5c(=O)[nH]nc5c4cc3-c3ccccc3)cc2)CCC1
# Experiment: log2 fold change, soluble protein after heating vs DMSO (PISA); higher = thermal stabilisation; K562 cells, 10 uM, 30 min; active = over 0.2 and 3.5 SD of the protein, either way, in both replicates (recomputed)
# Outline: (§1)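 Soluble protein was defined as the supernatant after 21,000xg for 90 min. It came from K562 cells at 2×10^6 cells/mL given 10 μM compound for 30 min, heated in aliquots for 3 min across 48°C-58°C, pooled, and extracted in PBS with 0.5% NP-40 at 4°C, and was quantified by TMTpro 16plex LC-MS/MS with equalised channel sums. Thermal stability against control samples, from duplicates, is reported as log2 fold change.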
row,Target,log2 fold change
1,CHIC2 (UniProt Q9UKJ5),inactive: -0.044
2,CFDP1 (UniProt Q9UEE9),inactive: 0.011
3,CHMP2A (UniProt O43633),inactive: -0.099
4,CHD4 isoform 2 (UniProt Q14839),inactive: -0.122
5,CEP76 (UniProt Q8TAP6),inactive: -0.018
6,CDK5RAP3 isoform 4 (UniProt Q96JB5),inactive: -0.092
7,CHKA (UniProt P35790),inactive: 0.014
8,CDC73 (UniProt Q6P1J9),inactive: 0.295
9,CHCHD3 (UniProt Q9NX63),inactive: -0.055
10,CDKAL1 (UniProt Q5VV42),inactive: 0
11,CDK13 (UniProt Q14004),inactive: -0.063
12,CFAP20 (UniProt Q9Y6A4),inactive: -0.006
13,CHD6 (UniProt Q8TD26),inactive: 0.236
14,CHMP4A isoform 2 (UniProt Q9BY43),inactive: -0.026
15,CHMP4B (UniProt Q9H444),inactive: -0.065
16,CDK11B (UniProt P21127),inactive: 0.031
17,CHMP3 (UniProt Q9Y3E7),inactive: -0.09
18,CFAP298 (UniProt P57076),inactive: 0.056
19,CETN2 (UniProt P41208),inactive: 0.102
20,CHAC2 (UniProt Q8WUX2),inactive: -0.008

row,Target,log2 fold change
1,CETN3 (UniProt O15182),inactive: -0.031
2,CHD3 isoform 3 (UniProt Q12873),inactive: -0.113
3,CFL2 (UniProt Q9Y281),inactive: -0.074
4,CHEK2 isoform 9 (UniProt O96017),inactive: -0.072
5,CFL1 (UniProt P23528),inactive: -0.044
6,CDCP1 (UniProt Q9H5V8),inactive: 0.105
7,CDS2 (UniProt O95674),inactive: -0.018
8,CDC42BPA isoform 6 (UniProt Q5VT25),inactive: -0.06
9,CEPT1 (UniProt Q9Y6K0),inactive: -0.215
10,CHAMP1 (UniProt Q96JM3),inactive: 0.007
11,CGGBP1 (UniProt Q9UFW8),inactive: 0.052
12,CDK5RAP1 (UniProt Q96SZ6),inactive: -0.114
13,CERS2 (UniProt Q96G23),inactive: -0.103
14,CDK16 isoform 2 (UniProt Q00536),inactive: -0.104
15,CDCA5 (UniProt Q96FF9),inactive: 0.024
16,CHMP4C (UniProt Q96CF2),inactive: -0.089
17,CELF2 isoform 3 (UniProt O95319),inactive: 0.017
18,CERS5 (UniProt Q8N5B7),inactive: 0.015
19,CDCA3 (UniProt Q99618),inactive: 0.024

# Compound: NCC(=O)Nc1ccc(-n2nc(C(F)(F)F)cc2-c2ccc3c(ccc4ccccc43)c2)cc1
# Experiment: as above
# Outline: as §1
row,Target,log2 fold change
1,CHIC2 (UniProt Q9UKJ5),inactive: -0.096
2,CFDP1 (UniProt Q9UEE9),inactive: 0.009
3,CHMP2A (UniProt O43633),inactive: 0.023
4,CHD4 isoform 2 (UniProt Q14839),inactive: -0.039
5,CEP76 (UniProt Q8TAP6),inactive: 0.018
6,CDK5RAP3 isoform 4 (UniProt Q96JB5),inactive: -0.097
7,CHKA (UniProt P35790),inactive: 0.012
8,CDC73 (UniProt Q6P1J9),inactive: -0.137
9,CHCHD3 (UniProt Q9NX63),inactive: -0.029
10,CDKAL1 (UniProt Q5VV42),inactive: -0.089
11,CDK13 (UniProt Q14004),inactive: 0.042
12,CFAP20 (UniProt Q9Y6A4),inactive: -0.123
13,CHD6 (UniProt Q8TD26),inactive: 0.381
14,CHMP4A isoform 2 (UniProt Q9BY43),inactive: -0.009
15,CHMP4B (UniProt Q9H444),inactive: -0.001
16,CDK11B (UniProt P21127),inactive: 0.006
17,CHMP3 (UniProt Q9Y3E7),inactive: -0.107
18,CFAP298 (UniProt P57076),inactive: -0.089
19,CETN2 (UniProt P41208),inactive: 0.076
20,CHAC2 (UniProt Q8WUX2),inactive: -0.028

row,Target,log2 fold change
1,CETN3 (UniProt O15182),inactive: -0.102
2,CHD3 isoform 3 (UniProt Q12873),inactive: -0.013
3,CFL2 (UniProt Q9Y281),inactive: -0.053
4,CHEK2 isoform 9 (UniProt O96017),inactive: 0.005
5,CFL1 (UniProt P23528),inactive: 0.048
6,CDCP1 (UniProt Q9H5V8),inactive: 0.066
7,CDS2 (UniProt O95674),inactive: 0.083
8,CDC42BPA isoform 6 (UniProt Q5VT25),inactive: -0.003
9,CEPT1 (UniProt Q9Y6K0),inactive: -0.156
10,CHAMP1 (UniProt Q96JM3),inactive: -0.031
11,CGGBP1 (UniProt Q9UFW8),inactive: 0.005
12,CDK5RAP1 (UniProt Q96SZ6),inactive: 0.199
13,CERS2 (UniProt Q96G23),inactive: -0.019
14,CDK16 isoform 2 (UniProt Q00536),inactive: -0.061
15,CDCA5 (UniProt Q96FF9),inactive: -0.009
16,CHMP4C (UniProt Q96CF2),inactive: -0.043
17,CELF2 isoform 3 (UniProt O95319),inactive: -0.017
18,CERS5 (UniProt Q8N5B7),inactive: -0.031
19,CDCA3 (UniProt Q99618),inactive: 0.027
